Percent effect of library compounds

From ChEMBL document CHEMBL3988442, “University of Dundee, Small-Polar-MMV Screening Library” (2021).

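Growth of Mycobacterium tuberculosis over 3 days (7H9 medium with glucose and tyloxapol); the read-out is not stated. Concentration: 500 µM. The record gives no direction; compounds that gave an IC50 in retests scored well above the rest, so higher reads as more growth inhibition. About 18,000 compounds were tested under these conditions; 7.9% (about 1,400) showed 50% or more at least once.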

The filed quantity is “Percent Effect” (%).
The record does not define 0% and 100%; most values in the screen are far below 50% and negative numbers occur (in some assays of this library far below -100).
The compounds are a random part of those screened.

compound,percent effect
CCc1ccc2c(c1)[C@@H](N)CCO2,53.99
Nc1cncc(CO)n1,5.708
NC(=O)CN1CCCN(C(=O)c2ccc(F)cc2)CC1,15.02
COc1ccccc1NC(=O)CN1CCCC1,7.125
Cn1nc(N)cc1C(=O)N1CCOCC1,10.77
CO[C@H]1CNCC1NC(=O)Cc1cccc(Cl)c1 (stereo not given in full),22.46
Ic1cnn(C2CCNCC2)c1,24.3
CC(=O)c1cccc(COC(=O)c2cccnc2)c1,56.3
c1ccc(C[C@H]2COCCN2)cc1,13.28
NC(=O)c1ccc(C(=O)NCc2nccs2)nc1,32.52
OCc1cnn(CC(F)(F)F)c1,7.627
CC(C1CC1)N(CCC#N)C(=O)N(C)C (stereo not given),2.462
CCc1ccc(C(=O)NCc2ccc(C(=O)NC)o2)[nH]1,22.56
CN1CC(C(=O)N2CCc3cc(Br)ccc32)CC1=O (stereo not given),-14.75
NCCc1nc(-c2cccc(Cl)c2)no1,65.4
COc1ccc(C(O)CN)cc1 (stereo not given),44.51
CN(C)C(=O)C1CCCN1C(=O)Cc1ccccc1 (stereo not given),18.9
CC1CCCN1C1CCN(CCNS(C)(=O)=O)CC1 (stereo not given),50
Cc1nc(C(N)c2ccc(Cl)cc2)no1 (stereo not given),27.25
Cc1cnc(NCC(O)CN2CCCCC2)nc1 (stereo not given),5.265
Cn1ncc(Cl)c1C(=O)N1CCc2ccccc2C1,5.023
COc1ccccc1-c1noc(C(C)N)n1 (stereo not given),10.14
CCc1nc(C)c(C(=O)NCC2CCS(=O)(=O)CC2)o1,-2.492
O=C1NCCN1CC1CCCN1 (stereo not given),5.402
CCNCc1ccc(OCC(N)=O)cc1,-1.02
Cc1cc(F)ccc1NC(=O)NCCCn1cnnc1,17.7
CC(C)CC(CCO)CNC(=O)N1CCSCC1 (stereo not given),24.05
CCC(NC(=O)CCn1cccn1)c1ccccc1O (stereo not given),32.85
CN1CCC(N(C)C(=O)CC(C)(C)C)CC1,-1.887
O=C(CCc1ccsc1)NCCN1CCS(=O)(=O)CC1,-4.116
C=C(Br)CN(C)C(C)c1cccc(S(N)(=O)=O)c1 (stereo not given),43.35
CN(CC1COCCO1)C(=O)c1ccc(CO)cc1 (stereo not given),9.241
Cc1cc(Br)ccc1C(=O)N1CCCNCC1,32.51
CCN(CC)C(=O)c1ccc(N2CCOCC2)cc1,17.24
CCOC(=O)CNC1=NS(=O)(=O)c2ccccc21,-16.26
CNC(=O)CCc1cnn(-c2ccccc2)c1,24.57
O=C(c1cccnc1)N1CCC(Nc2cccnc2)C1 (stereo not given),7.351
CN(Cc1ccccc1)C(=O)C1CCNCC1,9.937
CNC(=O)C1CN(c2ccc(F)cn2)CCO1 (stereo not given),22.48
NCCS(=O)(=O)NCc1ccccc1,6.103
NC(=O)COCCNC(=O)CC1CCCCC1,-2.442
O=C(Cn1cc(Cl)cn1)N1CCC2(CCCNC2)C1 (stereo not given),7.117
CN(C)C(=O)COC(=O)c1ccc(Cl)cc1O,2.625
CC(CN1CCCC1=O)NCc1ccc(C#N)cc1 (stereo not given),7.637
CN(C)C(CNC(=O)c1ccncc1)c1ccsc1 (stereo not given),9.155

The first 4 entries again:

compound,percent effect
CCc1ccc2c(c1)[C@@H](N)CCO2,53.99
Nc1cncc(CO)n1,5.708
NC(=O)CN1CCCN(C(=O)c2ccc(F)cc2)CC1,15.02
COc1ccccc1NC(=O)CN1CCCC1,7.125